Assay results: patent US11273141B2, “Low-dose carbachol compositions and methods for treatment of night vision disturbance” (VYLUMA INC., priority 2020, dated 2022)
At least one structure is not confirmed: it was looked up by name or label, or the drawing left a doubt.

Tested on: human individuals
Assay: Miotic response (dose response, eye color) to carbachol formulations in human
Format: in vivo
From the text: FIG. 7 is a graph depicting exemplary results for a dose response in human using a carbachol formulation according to the inventive subject matter.
FIG. 8 is a graph depicting exemplary results for miotic response in human individuals of different eye color using a 0.29% carbachol formulation according to the inventive subject matter.
FIG. 9 is a graph depicting exemplary results for miotic response in human individuals of different eye color using a 0.50% carbachol formulation according to the inventive subject matter.
FIG. 10 is a graph depicting exemplary results for miotic response in human individuals of different eye color using a 0.75% carbachol formulation according to the inventive subject matter.
To optimize the concentration of carbachol in the topical ophthalmic formulations, the inventors tested various dosages, and the table below depicts the composition for the carbachol formulations used.
Exemplary results for the miotic effect of carbachol at 0.29%, 0.50%, and 0.75% are depicted in FIG. 7.

SMILES: C[N+](C)(C)CCOC(N)=O [Carbachol, carbamoylcholine]
- miotic effect (in words) (0.29%, 0.50% and 0.75%, FIG. 7): an acute and transient miotic effect was achieved
- dependence of miotic effect on eye color (0.29%, 0.50%, 0.75%, FIGS. 8-10): independent of the eye color
- miotic effect versus 0.5% (concentrations lower than 0.5%): reduced miotic effect
- miotic effect versus 0.5% (increase in concentration to 0.75%): did not increase the miotic effect
